PubChem BioAssay AID587 (National Center for Advancing Translational Sciences (NCATS), 2007)
The whole screen tested about 59,000 compounds, of which about 35 (0.06%) were called active. This list was built around the results that the source calls inconclusive (neither active nor inactive); the mix of calls is not that of the screen. Cut-off read from the data, not from the text of the source: active = max dye-equivalent concentration above about 10 nM; inconclusive = between about 1.1 nM and that limit; inactive = weaker than that.

Test: qHTS Assay for Spectroscopic Profiling in Texas Red Spectral Region
Conditions: Compound fluorescence, Texas Red channel, 547/618 nm; stronger effect = higher value
Method in brief: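 Dye-equivalent concentrations come from scaling compound signal (ex 547, em 618 nm) to six Texas Red standard concentrations run on every plate, after 15 min room-temperature incubation in pH 8.0 Tris (100 mM).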

| Compound | max dye-equivalent concentration |
| --- | --- |
| Cc1ccc(-c2nc(N)n(C(=O)c3cccnc3)n2)cc1 | inconclusive: 1.9 nM |
| O=P(O)(O)OP(=O)(O)O | inconclusive: 1.2 nM |
| CCC(CC)c1nc2cc(OC)c(OC)cc2c(=O)o1 | inconclusive: 1.2 nM |
| COC(=O)c1cc(NC(=O)C2COc3ccccc3O2)cc(C(=O)OC)c1 (stereo not drawn) | inconclusive: 1.8 nM |
| COc1ccc(C2C=C(c3ccc(Cl)cc3)Nc3nc(NC(C)=O)nn32)cc1 (stereo not drawn) | inactive |
| CSc1nc(SC)c2c3c(oc2n1)COC(C)(C)C3 | inconclusive: 1.2 nM |
| O=C(Nc1cc(C(F)(F)F)ccc1N1CCOCC1)c1cccnc1 | inconclusive: 1.4 nM |
| Cc1ccc(C)c(OCCCN2CCCC2)c1 | inconclusive: 1.2 nM |
| CCCCCCn1c(=O)c(-c2nc3ccccc3c(=O)[nH]2)c(O)c2ccccc21 | inconclusive: 2.3 nM |
| COc1ccc(CNc2ncncc2-c2cccnc2)c(OC)c1 | inconclusive: 1.1 nM |
| O=C(O)C1C2C=CC(O2)C1C(=O)Nc1ccc(S(=O)(=O)N2CCc3ccccc32)cc1 (stereo not drawn) | inconclusive: 2.2 nM |
| CCN(CC)CC[n+]1ccc2c(C)c3[nH]c4ccccc4c3c(C)c2c1 | inactive |
| O=c1cc(CO)oc(C(Nc2ccccn2)c2ccc(C(F)(F)F)cc2)c1O (stereo not drawn) | inconclusive: 1.7 nM |
| Cc1ccccc1-n1nnnc1SCc1ncc(-c2ccccc2)o1 | inconclusive: 1.3 nM |
| Cc1cc(-c2nnc(SCC(=O)N3C(C)CCCC3C)o2)no1 (stereo not drawn) | inconclusive: 1.1 nM |
| COc1ccc(CCNC(=O)CSc2nnc(-c3ccc(F)cc3)o2)cc1OC | inconclusive: 2.8 nM |
| C[C@@H](CN1c2ccccc2Sc2ccccc21)N(C)C | inconclusive: 1.1 nM |
| CCSc1nnc(-c2ccc(S(=O)(=O)N3CCCC3)cc2)n1C | inconclusive: 1.7 nM |
| CN(C)CCNS(=O)(=O)N(C)C | inactive |
| O=C(O)CC[C@@H](C(=O)O)N1C(=O)[C@@H]2[C@@H]3CC[C@H](C3)[C@@H]2C1=O | inactive |
| Cc1cccc(-n2ncc3c(N)ncnc32)c1 | inconclusive: 1.1 nM |
| CC(C)Sc1nc(N2CCOCC2)c2c(c1C#N)CC(C)(C)SC2 | inconclusive: 1.7 nM |

Looked up above.
Value for O=C(O)C1C2C=CC(O2)C1C(=O)Nc1ccc(S(=O)(=O)N2CCc3ccccc32)cc1 (stereo not drawn) under max dye-equivalent concentration: inconclusive: 2.2 nM
Value for COc1ccc(CNc2ncncc2-c2cccnc2)c(OC)c1 under max dye-equivalent concentration: inconclusive: 1.1 nM

The listing continues.

| Compound | max dye-equivalent concentration |
| --- | --- |
| O=c1c2ccccc2nc(SCc2cccc(F)c2)n1Cc1ccco1 | inconclusive: 1.2 nM |
| N#Cc1nc(Cc2cccc3ccccc23)oc1N1CCOCC1 | inconclusive: 1.8 nM |
| CCCOn1nnnc1-c1ccccc1 | inconclusive: 2.3 nM |
| O=S(=O)(c1ccccc1)c1nc(-c2cccs2)oc1NCC1CCCO1 (stereo not drawn) | inconclusive: 1.1 nM |
| Cc1cc(-n2c(C)cc(C(=O)COc3ccc4ccc(=O)oc4c3)c2C)no1 | inconclusive: 3.5 nM |
| O=C(c1cc(C(F)(F)F)cc(C(F)(F)F)c1)N1CCC2(CC1)CCN(c1ccccn1)CC2 | inactive |
| CC(C)C[C@H](NC(=O)OC(C)(C)C)c1nnc(SCc2cccc(F)c2)o1 | inconclusive: 1.4 nM |
| O=C(OC1CCOC1=O)c1ccc2ncsc2c1 (stereo not drawn) | inconclusive: 1.2 nM |
| COc1ccc(CNCC(O)COCc2cccs2)cc1 (stereo not drawn) | inconclusive: 1.1 nM |
| CC(C)(C)NC(=O)C(c1ccc(F)cc1)N(Cc1ccco1)C(=O)c1csnn1 (stereo not drawn) | inconclusive: 1.4 nM |
| C#CCN1C(C)=C(C(=O)OC)[C@@H](c2cccc([N+](=O)[O-])c2)C(C(=O)OCC)=C1C | inactive |
| N#CC1=C(SCC(=O)c2cc3ccccc3oc2=O)NC(=O)C(C#N)C12CCCC2 (stereo not drawn) | inconclusive: 1.2 nM |
| COC(=O)c1ccc(C2NC(=O)NC(C)=C2C(=O)N(C)C)cc1 (stereo not drawn) | inconclusive: 1.4 nM |
| Cc1ccc(C(=O)c2cn[nH]c2-c2cc(Cl)ccc2O)cc1 | inconclusive: 1.5 nM |
| CCC(=O)NCc1nc2ccccc2n1Cc1ccccc1F | inconclusive: 1.2 nM |
| O=C(NCC(=O)N(Cc1ccco1)C(C(=O)NC1CCCC1)c1cccnc1)c1cccs1 (stereo not drawn) | inconclusive: 1.5 nM |
| COc1ccc(-n2c(=O)cc(N3CC(C)OC(C)C3)[nH]c2=O)cc1 (stereo not drawn) | inconclusive: 1.1 nM |
| CCCCOC(=O)c1ccc(OC(=O)c2cccnc2)cc1 | inconclusive: 1.4 nM |
| O=C(c1ccncc1)N(Cc1cc2ccccc2[nH]c1=O)C1CCCCC1 | inconclusive: 1.5 nM |
| O=C(O)C1CC=CCC1C(=O)Nc1ccc(F)c(F)c1 (stereo not drawn) | inconclusive: 1.1 nM |
| CCOC(=O)Cc1csc(NC(=O)c2ccc3c(c2)OCO3)n1 | inconclusive: 1.5 nM |
| NC(N)=NC(=O)c1nc(Cl)c(N2CCCCCC2)nc1N | inconclusive: 1.2 nM |

| Compound | max dye-equivalent concentration |
| --- | --- |
| Cc1cccc(-c2c3c(=O)n(C)c(=O)n(C)c3cn2CC2CCCO2)c1 (stereo not drawn) | inconclusive: 1.4 nM |
| C=CCn1c(SCC2=C(C(=O)OCC)C(C)NC(=O)N2)nnc1C1CCCCC1 (stereo not drawn) | inconclusive: 1.6 nM |
| CN(C(=O)COc1ccccc1)c1nnc(-c2cccnc2)s1 | inconclusive: 1.1 nM |
| O=C(CCn1c(=O)oc2ccccc21)NCCCN1CCN(c2ccc(F)cc2)CC1 | inconclusive: 1.7 nM |
| CCOCCCN(C(=O)CNC(=O)c1ccco1)C(C(=O)NC1CCCC1)c1ccccc1C (stereo not drawn) | inconclusive: 1.3 nM |
| COc1ccc2[nH]cc(CCNc3ccnc(-c4cccnc4)n3)c2c1 | inconclusive: 1.6 nM |
| Cc1nn2c3ccccc3nc2n(C)c1=O | inactive |
| COc1ccc(C2N(C(=O)CN3CCOCC3)CCN2S(=O)(=O)c2ccccc2)cc1 (stereo not drawn) | inconclusive: 1.9 nM |
| Cc1ccc(Cn2c(C)nc3c(c2=O)c2nc4ccccc4nc2n3Cc2ccco2)cc1 | inconclusive: 1.2 nM |
| CCOC(=O)c1cccc(NC(=O)c2cccs2)c1 | inconclusive: 1.4 nM |
| CCCCC(=O)Nc1ccc2c3c(cccc13)C(=O)N2CC | inconclusive: 1.2 nM |
| CN1CCN(c2ccc(NC(=O)c3ccccc3Br)cc2)CC1 | inconclusive: 1.4 nM |
| COCCn1c(N2CCN(c3ccc(OC)cc3)CC2)nc2c1c(=O)[nH]c(=O)n2C | inconclusive: 1.4 nM |
| CC(=O)Nc1cccc(NC(=O)C2CCCN2C(=O)Nc2cccc(F)c2)c1 (stereo not drawn) | inconclusive: 1.2 nM |
| O=C(O)CCNc1ccc2c(c1)OCCO2 | inconclusive: 3.3 nM |
| CN=C(N)/N=C(\N)Nc1cc2ccccc2c2ccccc12 | inconclusive: 2.1 nM |
| O=C(CN1CCOCC1)NC1C2CC3CC(C2)CC1C3 (stereo not drawn) | inconclusive: 1.2 nM |
| Cc1nc2ccccc2c(=O)n1NC(=O)Nc1ccccc1 | inconclusive: 1.2 nM |
| Cc1ccc(C)c(C(=O)CC2(O)C(=O)Nc3ccccc32)c1 (stereo not drawn) | inconclusive: 1.2 nM |
| COc1ccc(C(=O)Nc2nc(-c3cccs3)cs2)cc1 | inactive |
| COc1cc(OC)c(-c2nn3c(-c4ccncc4)nnc3s2)cc1OC | inconclusive: 1.2 nM |
| c1ccc(C(CCN2CC3CCC(CC3)C2)c2ccccc2)cc1 | inactive |

| Compound | max dye-equivalent concentration |
| --- | --- |
| COc1ccc2[nH]c3c(c2c1)CCn1c-3nc2ccccc2c1=O | inconclusive: 1.3 nM |
| O=C(COC(=O)c1cccs1)NCc1ccco1 | inconclusive: 1.2 nM |
| CCOc1ccccc1NS(=O)(=O)c1cccs1 | inconclusive: 1.1 nM |
| CC1CCCC(NC(=O)COC(=O)c2ccc(S(=O)(=O)N3CCOCC3)cc2)C1C (stereo not drawn) | inconclusive: 1.2 nM |
| COc1ccc(NC(=O)c2cc3n(n2)C(C(F)(F)F)CC(c2ccco2)N3)cc1 (stereo not drawn) | inconclusive: 1.2 nM |
| COc1cccc(Nc2ncc3nc(C)c(=O)n(CCc4ccccc4)c3n2)c1 | inactive |
| Cc1nnc(NC(=O)c2sc3ccccc3c2Cl)s1 | inconclusive: 1.6 nM |
| Fc1cccc2sc(Nc3nnc(-c4ccco4)o3)nc12 | inconclusive: 2.1 nM |
| Cc1cc(C(=O)COC(=O)c2cccs2)c(C)n1-c1c(C)n(C)n(-c2ccccc2)c1=O | inconclusive: 1.5 nM |
| CCCC(=O)c1ccc(N2CCN(S(=O)(=O)c3ccc(C)cc3)CC2)c(F)c1 | inconclusive: 1.2 nM |
| Cc1cccc2c(=O)oc(-c3ccc4c(c3)C(=O)N(CC3CCCO3)C4=O)nc12 (stereo not drawn) | inconclusive: 1.6 nM |
| Cc1ccc(C2C3=C(CC(C)(C)CC3=O)Nc3n[nH]c(C)c32)cc1 (stereo not drawn) | inconclusive: 2.4 nM |
| CSc1nc(N)c2ncn([C@@H]3O[C@@H](COP(=O)(O)OP(=O)(O)OP(=O)(O)O)[C@@H](O)[C@H]3O)c2n1 | inactive |
| CCn1c(=O)cc(OCC(=O)O)c2ccccc21 | inconclusive: 1.1 nM |
| CC1CCC2C(C1)c1sc(=O)[nH]c1SC2(C)C (stereo not drawn) | inconclusive: 2.2 nM |
| O=C(Nc1nnc(CCN2CCOCC2)s1)C1CCCCC1 | inconclusive: 2.3 nM |
| COc1cccc(CC(NC(C)=O)C(=O)NC2CCN(c3c4c(nc5ncnn35)CCC4)CC2)c1 (stereo not drawn) | inconclusive: 1.1 nM |
| CCOC(=O)CC1=CSC2=NS(=O)(=O)CCN12 | inconclusive: 1.9 nM |
| COCCNc1ncnc2ccc(-c3cccc(OC)c3)cc12 | inactive |
| COC(=O)c1ccc2c(c1)C(=O)N(C1CCCCC1)C2=O | inconclusive: 1.4 nM |
| COc1ccccc1N1C(=O)CC(Nc2ccc(N3CCOCC3)cc2)C1=O (stereo not drawn) | inconclusive: 1.1 nM |
| CN(C)Cc1ccc(O)c(CCc2ccccc2)n1 | inconclusive: 1.5 nM |

Three entries picked at random from those above:

| Compound | max dye-equivalent concentration |
| --- | --- |
| CN(C(=O)COc1ccccc1)c1nnc(-c2cccnc2)s1 | inconclusive: 1.1 nM |
| COCCNc1ncnc2ccc(-c3cccc(OC)c3)cc12 | inactive |
| CCCCC(=O)Nc1ccc2c3c(cccc13)C(=O)N2CC | inconclusive: 1.2 nM |
